# These are yes or no findings as the source states them, for the method shown. In cells and extracts the contact can be indirect. Some entries that bind do so weakly or less than the wild type. Sequences can lack the tags named with a protein.
# Chains of the proteins cited; added tags and fusions are not shown.
# UniProt P11142: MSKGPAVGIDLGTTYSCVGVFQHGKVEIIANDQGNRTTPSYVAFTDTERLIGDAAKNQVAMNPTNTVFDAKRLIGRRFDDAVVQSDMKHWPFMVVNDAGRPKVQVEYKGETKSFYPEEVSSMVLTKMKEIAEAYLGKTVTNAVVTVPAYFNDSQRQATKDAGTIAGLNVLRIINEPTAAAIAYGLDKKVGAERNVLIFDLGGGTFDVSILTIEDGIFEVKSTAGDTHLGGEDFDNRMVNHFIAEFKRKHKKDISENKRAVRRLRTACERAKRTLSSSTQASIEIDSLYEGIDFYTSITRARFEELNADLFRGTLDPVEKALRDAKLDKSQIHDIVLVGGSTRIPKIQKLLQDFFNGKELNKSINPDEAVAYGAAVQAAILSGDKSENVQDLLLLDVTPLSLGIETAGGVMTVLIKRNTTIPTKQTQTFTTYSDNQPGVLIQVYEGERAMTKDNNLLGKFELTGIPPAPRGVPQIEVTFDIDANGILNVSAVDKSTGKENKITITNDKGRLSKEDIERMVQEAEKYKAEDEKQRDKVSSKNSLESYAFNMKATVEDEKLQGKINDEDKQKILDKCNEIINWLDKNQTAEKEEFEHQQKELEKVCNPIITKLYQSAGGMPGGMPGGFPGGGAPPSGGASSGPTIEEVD
# UniProt P21707: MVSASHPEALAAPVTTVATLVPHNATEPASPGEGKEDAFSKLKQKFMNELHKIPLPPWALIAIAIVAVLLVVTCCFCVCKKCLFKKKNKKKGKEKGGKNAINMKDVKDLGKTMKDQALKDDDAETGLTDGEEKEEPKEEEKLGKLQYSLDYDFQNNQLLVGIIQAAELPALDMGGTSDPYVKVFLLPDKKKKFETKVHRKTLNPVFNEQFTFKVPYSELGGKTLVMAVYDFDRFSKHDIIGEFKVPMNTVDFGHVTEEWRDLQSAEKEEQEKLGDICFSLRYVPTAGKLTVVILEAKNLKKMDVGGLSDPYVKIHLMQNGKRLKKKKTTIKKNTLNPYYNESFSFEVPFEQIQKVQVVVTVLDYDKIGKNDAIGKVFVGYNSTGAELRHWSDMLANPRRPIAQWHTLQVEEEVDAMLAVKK
# UniProt P11275: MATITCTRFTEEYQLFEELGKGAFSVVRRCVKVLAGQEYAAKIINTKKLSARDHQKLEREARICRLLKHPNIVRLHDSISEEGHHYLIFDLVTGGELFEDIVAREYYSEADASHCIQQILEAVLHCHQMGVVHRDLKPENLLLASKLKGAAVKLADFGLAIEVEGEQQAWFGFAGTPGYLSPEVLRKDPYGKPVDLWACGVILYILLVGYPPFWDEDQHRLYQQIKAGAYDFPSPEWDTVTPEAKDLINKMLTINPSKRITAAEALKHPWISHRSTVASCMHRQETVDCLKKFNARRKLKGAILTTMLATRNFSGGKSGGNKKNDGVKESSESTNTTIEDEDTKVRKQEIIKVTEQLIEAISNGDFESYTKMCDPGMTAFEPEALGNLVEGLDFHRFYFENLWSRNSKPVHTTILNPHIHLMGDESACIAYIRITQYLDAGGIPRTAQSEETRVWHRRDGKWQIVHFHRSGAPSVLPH
# UniProt Q00610: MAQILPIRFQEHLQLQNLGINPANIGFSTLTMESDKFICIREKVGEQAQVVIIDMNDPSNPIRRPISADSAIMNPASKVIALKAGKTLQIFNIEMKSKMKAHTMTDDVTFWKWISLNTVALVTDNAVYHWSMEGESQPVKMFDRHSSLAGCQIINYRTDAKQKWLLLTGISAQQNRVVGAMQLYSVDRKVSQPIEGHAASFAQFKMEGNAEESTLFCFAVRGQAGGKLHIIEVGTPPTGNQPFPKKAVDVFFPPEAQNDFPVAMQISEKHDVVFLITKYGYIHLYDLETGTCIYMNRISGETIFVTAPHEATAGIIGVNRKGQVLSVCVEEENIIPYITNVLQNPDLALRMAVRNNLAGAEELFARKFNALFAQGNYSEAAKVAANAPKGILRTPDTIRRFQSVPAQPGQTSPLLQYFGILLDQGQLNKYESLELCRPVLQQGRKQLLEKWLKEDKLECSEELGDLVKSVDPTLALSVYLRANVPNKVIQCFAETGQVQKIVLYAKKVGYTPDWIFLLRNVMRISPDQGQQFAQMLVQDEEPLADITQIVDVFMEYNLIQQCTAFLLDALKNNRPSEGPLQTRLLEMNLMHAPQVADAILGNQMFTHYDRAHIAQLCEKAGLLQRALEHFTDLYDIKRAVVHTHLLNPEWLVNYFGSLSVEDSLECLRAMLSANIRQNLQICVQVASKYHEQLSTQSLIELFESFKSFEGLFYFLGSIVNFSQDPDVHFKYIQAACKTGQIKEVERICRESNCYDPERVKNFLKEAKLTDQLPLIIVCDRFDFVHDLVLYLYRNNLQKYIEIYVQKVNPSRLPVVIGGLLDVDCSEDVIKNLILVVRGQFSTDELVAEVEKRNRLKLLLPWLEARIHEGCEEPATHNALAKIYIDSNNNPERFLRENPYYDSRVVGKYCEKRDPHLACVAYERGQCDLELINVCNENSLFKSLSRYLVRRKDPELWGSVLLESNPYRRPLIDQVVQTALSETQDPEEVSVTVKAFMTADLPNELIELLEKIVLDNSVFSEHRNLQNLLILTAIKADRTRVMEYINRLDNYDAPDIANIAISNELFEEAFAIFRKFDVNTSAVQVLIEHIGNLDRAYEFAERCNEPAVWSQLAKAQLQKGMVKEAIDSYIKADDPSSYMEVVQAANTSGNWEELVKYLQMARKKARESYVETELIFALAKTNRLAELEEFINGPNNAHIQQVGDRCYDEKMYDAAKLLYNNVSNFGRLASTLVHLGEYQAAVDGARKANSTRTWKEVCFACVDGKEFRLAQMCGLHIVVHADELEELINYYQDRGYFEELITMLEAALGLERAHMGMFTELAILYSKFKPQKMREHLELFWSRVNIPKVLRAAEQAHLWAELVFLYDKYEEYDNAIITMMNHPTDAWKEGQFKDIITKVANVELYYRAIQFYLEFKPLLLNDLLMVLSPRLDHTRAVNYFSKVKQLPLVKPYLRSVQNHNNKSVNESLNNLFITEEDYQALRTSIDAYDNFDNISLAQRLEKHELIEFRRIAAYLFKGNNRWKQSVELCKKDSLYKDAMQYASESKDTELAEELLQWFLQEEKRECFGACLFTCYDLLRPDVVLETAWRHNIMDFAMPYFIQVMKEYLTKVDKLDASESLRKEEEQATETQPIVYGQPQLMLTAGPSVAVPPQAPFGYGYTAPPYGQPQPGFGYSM
# T1: myc-DGKθ (UniProt P52824)
# T1 sequence: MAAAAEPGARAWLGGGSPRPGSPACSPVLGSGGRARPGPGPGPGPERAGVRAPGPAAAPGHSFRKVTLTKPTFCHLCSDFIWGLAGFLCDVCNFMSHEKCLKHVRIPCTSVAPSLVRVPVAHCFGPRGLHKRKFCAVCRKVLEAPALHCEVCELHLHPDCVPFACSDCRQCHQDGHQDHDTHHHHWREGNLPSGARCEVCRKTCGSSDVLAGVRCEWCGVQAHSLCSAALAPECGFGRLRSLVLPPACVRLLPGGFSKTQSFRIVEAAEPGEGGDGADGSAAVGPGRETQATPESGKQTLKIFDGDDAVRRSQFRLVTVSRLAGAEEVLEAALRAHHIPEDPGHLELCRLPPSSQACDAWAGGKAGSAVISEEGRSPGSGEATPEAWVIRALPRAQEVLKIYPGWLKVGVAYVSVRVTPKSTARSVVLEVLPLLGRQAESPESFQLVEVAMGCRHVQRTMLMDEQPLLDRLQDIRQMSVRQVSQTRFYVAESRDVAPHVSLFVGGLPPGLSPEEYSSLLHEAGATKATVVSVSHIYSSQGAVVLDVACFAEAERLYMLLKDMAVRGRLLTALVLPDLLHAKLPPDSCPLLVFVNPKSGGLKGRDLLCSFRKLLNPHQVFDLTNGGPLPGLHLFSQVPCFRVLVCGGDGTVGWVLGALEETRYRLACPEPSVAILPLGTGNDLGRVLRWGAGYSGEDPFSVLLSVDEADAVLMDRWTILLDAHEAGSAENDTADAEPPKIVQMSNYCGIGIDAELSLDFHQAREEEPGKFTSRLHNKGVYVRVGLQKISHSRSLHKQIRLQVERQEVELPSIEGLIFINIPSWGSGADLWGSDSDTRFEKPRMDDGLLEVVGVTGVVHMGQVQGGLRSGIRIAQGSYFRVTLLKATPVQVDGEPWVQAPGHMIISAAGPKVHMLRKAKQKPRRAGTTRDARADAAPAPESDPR
# B1: Syngr1-GFP (protein, UniProt O43759 1-233)
# chain: MEGGAYGAGKAGGAFDPYTLVRQPHTILRVVSWLFSIVVFGSIVNEGYLNSASEGEEFCIYNRNPNACSYGVAVGVLAFLTCLLYLALDVYFPQISSVKDRKKAVLSDIGVSAFWAFLWFVGFCYLANQWQVSKPKDNPLNEGTDAARAAIAFSFFSIFTWAGQAVLAFQRYQIGADSALFSQDYMDPSQDSSMPYAPYVEPTGPDPAGMGGTYQQPANTFDTEPQGYQSQGY
# B2: HA-dynamin1 (protein, UniProt Q05193 1-864)
# chain: MGNRGMEDLIPLVNRLQDAFSAIGQNADLDLPQIAVVGGQSAGKSSVLENFVGRDFLPRGSGIVTRRPLVLQLVNATTEYAEFLHCKGKKFTDFEEVRLEIEAETDRVTGTNKGISPVPINLRVYSPHVLNLTLVDLPGMTKVPVGDQPPDIEFQIRDMLMQFVTKENCLILAVSPANSDLANSDALKVAKEVDPQGQRTIGVITKLDLMDEGTDARDVLENKLLPLRRGYIGVVNRSQKDIDGKKDITAALAAERKFFLSHPSYRHLADRMGTPYLQKVLNQQLTNHIRDTLPGLRNKLQSQLLSIEKEVEEYKNFRPDDPARKTKALLQMVQQFAVDFEKRIEGSGDQIDTYELSGGARINRIFHERFPFELVKMEFDEKELRREISYAIKNIHGIRTGLFTPDMAFETIVKKQVKKIREPCLKCVDMVISELISTVRQCTKKLQQYPRLREEMERIVTTHIREREGRTKEQVMLLIDIELAYMNTNHEDFIGFANAQQRSNQMNKKKTSGNQDEILVIRKGWLTINNIGIMKGGSKEYWFVLTAENLSWYKDDEEKEKKYMLSVDNLKLRDVEKGFMSSKHIFALFNTEQRNVYKDYRQLELACETQEEVDSWKASFLRAGVYPERVGDKEKASETEENGSDSFMHSMDPQLERQVETIRNLVDSYMAIVNKTVRDLMPKTIMHLMINNTKEFIFSELLANLYSCGDQNTLMEESAEQAQRRDEMLRMYHALKEALSIIGDINTTTVSTPMPPPVDDSWLQVQSVPAGRRSPTSSPTPQRRAPAVPPARPGSRGPAPGPPPAGSALGGAPPVPSRPGASPDPFGPPPQVPSRPNRAPPGVPSRSGQASPSRPESPRPPFDL
# B3: HA-Stx7 (protein, UniProt O15400 1-261)
# chain: MSYTPGVGGDPAQLAQRISSNIQKITQCSVEIQRTLNQLGTPQDSPELRQQLQQKQQYTNQLAKETDKYIKEFGSLPTTPSEQRQRKIQKDRLVAEFTTSLTNFQKVQRQAAEREKEFVARVRASSRVSGSFPEDSSKERNLVSWESQTQPQVQVQDEEITEDDLRLIHERESSIRQLEADIMDINEIFKDLGMMIHEQGDVIDSIEANVENAEVHVQQANQQLSRAADYQRKSRKTLCIIILILVIGVAIISLIIWGLNH
# Target: T1, myc-DGKθ
# Assay: co-IP; HEK293FT transfected with pRK5-myc-DGKθ alone or with each interactor's plasmid; lysis in 1% NP40, 5 mM NaF, 5 mM NaPPi, 1 mM EDTA, 1 mM EGTA in PBS; anti-myc antibody and protein A/G beads; Western blot for the interactor
row,Molecule,binding
1,GFP-HSPA8 (from UniProt P11142 1-646),binds
2,"Hsc70 (endogenous, HEK293FT) (from UniProt P11142 1-646)",binds
3,Syt1-pH (from UniProt P21707 1-421),binds
4,mGFP-Camk2a (from UniProt P11275 1-478),binds
5,HA-CLTC (from UniProt Q00610 1-1675),no binding
6,B1,binds
7,B2,binds
8,B3,binds
